The other results are listed elsewhere or left out.
Experiments:
Assay in all cases: log2 fold change, soluble protein after heating vs DMSO (PISA); higher = thermal stabilisation; K562 lysate, 10 uM; active = over 0.2 and 3.5 SD of the protein, either way, in both replicates (recomputed)
erlotinib = compound: C#Cc1cccc(Nc2ncnc3cc(OCCOC)c(OCCOC)cc23)c1 [erlotinib]
Outline: (§1)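 Log-two fold change in thermal stability relative to solvent controls is reported from duplicates. For each sample, crude K562 extract from dounce-homogenised pellets in PBS pH 7.4 with 1 mM MgCl2, at 1 mg/mL protein, was treated with 10 μM compound for 30 min. Aliquots heated for 3 min across 48°C-58°C were pooled, brought to 0.5% NP-40 at 4°C and cleared at 21,000xg for 90 min. The supernatant was quantified by TMTpro 16plex LC-MS/MS with channel sums equalised.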

Sequences of proteins named here, by UniProt entry; tags and fusion partners are left off. A change or cut given only in a name is not applied to a line headed by its entry.
UniProt Q96MH2: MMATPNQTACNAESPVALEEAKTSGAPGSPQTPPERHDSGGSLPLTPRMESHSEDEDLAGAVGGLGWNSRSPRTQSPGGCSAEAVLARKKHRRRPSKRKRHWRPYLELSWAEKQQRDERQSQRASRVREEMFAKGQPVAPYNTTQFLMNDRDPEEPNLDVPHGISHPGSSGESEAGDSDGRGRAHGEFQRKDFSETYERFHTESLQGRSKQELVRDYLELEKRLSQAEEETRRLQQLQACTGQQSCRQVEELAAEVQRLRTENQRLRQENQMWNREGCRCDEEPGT
UniProt Q96RW7: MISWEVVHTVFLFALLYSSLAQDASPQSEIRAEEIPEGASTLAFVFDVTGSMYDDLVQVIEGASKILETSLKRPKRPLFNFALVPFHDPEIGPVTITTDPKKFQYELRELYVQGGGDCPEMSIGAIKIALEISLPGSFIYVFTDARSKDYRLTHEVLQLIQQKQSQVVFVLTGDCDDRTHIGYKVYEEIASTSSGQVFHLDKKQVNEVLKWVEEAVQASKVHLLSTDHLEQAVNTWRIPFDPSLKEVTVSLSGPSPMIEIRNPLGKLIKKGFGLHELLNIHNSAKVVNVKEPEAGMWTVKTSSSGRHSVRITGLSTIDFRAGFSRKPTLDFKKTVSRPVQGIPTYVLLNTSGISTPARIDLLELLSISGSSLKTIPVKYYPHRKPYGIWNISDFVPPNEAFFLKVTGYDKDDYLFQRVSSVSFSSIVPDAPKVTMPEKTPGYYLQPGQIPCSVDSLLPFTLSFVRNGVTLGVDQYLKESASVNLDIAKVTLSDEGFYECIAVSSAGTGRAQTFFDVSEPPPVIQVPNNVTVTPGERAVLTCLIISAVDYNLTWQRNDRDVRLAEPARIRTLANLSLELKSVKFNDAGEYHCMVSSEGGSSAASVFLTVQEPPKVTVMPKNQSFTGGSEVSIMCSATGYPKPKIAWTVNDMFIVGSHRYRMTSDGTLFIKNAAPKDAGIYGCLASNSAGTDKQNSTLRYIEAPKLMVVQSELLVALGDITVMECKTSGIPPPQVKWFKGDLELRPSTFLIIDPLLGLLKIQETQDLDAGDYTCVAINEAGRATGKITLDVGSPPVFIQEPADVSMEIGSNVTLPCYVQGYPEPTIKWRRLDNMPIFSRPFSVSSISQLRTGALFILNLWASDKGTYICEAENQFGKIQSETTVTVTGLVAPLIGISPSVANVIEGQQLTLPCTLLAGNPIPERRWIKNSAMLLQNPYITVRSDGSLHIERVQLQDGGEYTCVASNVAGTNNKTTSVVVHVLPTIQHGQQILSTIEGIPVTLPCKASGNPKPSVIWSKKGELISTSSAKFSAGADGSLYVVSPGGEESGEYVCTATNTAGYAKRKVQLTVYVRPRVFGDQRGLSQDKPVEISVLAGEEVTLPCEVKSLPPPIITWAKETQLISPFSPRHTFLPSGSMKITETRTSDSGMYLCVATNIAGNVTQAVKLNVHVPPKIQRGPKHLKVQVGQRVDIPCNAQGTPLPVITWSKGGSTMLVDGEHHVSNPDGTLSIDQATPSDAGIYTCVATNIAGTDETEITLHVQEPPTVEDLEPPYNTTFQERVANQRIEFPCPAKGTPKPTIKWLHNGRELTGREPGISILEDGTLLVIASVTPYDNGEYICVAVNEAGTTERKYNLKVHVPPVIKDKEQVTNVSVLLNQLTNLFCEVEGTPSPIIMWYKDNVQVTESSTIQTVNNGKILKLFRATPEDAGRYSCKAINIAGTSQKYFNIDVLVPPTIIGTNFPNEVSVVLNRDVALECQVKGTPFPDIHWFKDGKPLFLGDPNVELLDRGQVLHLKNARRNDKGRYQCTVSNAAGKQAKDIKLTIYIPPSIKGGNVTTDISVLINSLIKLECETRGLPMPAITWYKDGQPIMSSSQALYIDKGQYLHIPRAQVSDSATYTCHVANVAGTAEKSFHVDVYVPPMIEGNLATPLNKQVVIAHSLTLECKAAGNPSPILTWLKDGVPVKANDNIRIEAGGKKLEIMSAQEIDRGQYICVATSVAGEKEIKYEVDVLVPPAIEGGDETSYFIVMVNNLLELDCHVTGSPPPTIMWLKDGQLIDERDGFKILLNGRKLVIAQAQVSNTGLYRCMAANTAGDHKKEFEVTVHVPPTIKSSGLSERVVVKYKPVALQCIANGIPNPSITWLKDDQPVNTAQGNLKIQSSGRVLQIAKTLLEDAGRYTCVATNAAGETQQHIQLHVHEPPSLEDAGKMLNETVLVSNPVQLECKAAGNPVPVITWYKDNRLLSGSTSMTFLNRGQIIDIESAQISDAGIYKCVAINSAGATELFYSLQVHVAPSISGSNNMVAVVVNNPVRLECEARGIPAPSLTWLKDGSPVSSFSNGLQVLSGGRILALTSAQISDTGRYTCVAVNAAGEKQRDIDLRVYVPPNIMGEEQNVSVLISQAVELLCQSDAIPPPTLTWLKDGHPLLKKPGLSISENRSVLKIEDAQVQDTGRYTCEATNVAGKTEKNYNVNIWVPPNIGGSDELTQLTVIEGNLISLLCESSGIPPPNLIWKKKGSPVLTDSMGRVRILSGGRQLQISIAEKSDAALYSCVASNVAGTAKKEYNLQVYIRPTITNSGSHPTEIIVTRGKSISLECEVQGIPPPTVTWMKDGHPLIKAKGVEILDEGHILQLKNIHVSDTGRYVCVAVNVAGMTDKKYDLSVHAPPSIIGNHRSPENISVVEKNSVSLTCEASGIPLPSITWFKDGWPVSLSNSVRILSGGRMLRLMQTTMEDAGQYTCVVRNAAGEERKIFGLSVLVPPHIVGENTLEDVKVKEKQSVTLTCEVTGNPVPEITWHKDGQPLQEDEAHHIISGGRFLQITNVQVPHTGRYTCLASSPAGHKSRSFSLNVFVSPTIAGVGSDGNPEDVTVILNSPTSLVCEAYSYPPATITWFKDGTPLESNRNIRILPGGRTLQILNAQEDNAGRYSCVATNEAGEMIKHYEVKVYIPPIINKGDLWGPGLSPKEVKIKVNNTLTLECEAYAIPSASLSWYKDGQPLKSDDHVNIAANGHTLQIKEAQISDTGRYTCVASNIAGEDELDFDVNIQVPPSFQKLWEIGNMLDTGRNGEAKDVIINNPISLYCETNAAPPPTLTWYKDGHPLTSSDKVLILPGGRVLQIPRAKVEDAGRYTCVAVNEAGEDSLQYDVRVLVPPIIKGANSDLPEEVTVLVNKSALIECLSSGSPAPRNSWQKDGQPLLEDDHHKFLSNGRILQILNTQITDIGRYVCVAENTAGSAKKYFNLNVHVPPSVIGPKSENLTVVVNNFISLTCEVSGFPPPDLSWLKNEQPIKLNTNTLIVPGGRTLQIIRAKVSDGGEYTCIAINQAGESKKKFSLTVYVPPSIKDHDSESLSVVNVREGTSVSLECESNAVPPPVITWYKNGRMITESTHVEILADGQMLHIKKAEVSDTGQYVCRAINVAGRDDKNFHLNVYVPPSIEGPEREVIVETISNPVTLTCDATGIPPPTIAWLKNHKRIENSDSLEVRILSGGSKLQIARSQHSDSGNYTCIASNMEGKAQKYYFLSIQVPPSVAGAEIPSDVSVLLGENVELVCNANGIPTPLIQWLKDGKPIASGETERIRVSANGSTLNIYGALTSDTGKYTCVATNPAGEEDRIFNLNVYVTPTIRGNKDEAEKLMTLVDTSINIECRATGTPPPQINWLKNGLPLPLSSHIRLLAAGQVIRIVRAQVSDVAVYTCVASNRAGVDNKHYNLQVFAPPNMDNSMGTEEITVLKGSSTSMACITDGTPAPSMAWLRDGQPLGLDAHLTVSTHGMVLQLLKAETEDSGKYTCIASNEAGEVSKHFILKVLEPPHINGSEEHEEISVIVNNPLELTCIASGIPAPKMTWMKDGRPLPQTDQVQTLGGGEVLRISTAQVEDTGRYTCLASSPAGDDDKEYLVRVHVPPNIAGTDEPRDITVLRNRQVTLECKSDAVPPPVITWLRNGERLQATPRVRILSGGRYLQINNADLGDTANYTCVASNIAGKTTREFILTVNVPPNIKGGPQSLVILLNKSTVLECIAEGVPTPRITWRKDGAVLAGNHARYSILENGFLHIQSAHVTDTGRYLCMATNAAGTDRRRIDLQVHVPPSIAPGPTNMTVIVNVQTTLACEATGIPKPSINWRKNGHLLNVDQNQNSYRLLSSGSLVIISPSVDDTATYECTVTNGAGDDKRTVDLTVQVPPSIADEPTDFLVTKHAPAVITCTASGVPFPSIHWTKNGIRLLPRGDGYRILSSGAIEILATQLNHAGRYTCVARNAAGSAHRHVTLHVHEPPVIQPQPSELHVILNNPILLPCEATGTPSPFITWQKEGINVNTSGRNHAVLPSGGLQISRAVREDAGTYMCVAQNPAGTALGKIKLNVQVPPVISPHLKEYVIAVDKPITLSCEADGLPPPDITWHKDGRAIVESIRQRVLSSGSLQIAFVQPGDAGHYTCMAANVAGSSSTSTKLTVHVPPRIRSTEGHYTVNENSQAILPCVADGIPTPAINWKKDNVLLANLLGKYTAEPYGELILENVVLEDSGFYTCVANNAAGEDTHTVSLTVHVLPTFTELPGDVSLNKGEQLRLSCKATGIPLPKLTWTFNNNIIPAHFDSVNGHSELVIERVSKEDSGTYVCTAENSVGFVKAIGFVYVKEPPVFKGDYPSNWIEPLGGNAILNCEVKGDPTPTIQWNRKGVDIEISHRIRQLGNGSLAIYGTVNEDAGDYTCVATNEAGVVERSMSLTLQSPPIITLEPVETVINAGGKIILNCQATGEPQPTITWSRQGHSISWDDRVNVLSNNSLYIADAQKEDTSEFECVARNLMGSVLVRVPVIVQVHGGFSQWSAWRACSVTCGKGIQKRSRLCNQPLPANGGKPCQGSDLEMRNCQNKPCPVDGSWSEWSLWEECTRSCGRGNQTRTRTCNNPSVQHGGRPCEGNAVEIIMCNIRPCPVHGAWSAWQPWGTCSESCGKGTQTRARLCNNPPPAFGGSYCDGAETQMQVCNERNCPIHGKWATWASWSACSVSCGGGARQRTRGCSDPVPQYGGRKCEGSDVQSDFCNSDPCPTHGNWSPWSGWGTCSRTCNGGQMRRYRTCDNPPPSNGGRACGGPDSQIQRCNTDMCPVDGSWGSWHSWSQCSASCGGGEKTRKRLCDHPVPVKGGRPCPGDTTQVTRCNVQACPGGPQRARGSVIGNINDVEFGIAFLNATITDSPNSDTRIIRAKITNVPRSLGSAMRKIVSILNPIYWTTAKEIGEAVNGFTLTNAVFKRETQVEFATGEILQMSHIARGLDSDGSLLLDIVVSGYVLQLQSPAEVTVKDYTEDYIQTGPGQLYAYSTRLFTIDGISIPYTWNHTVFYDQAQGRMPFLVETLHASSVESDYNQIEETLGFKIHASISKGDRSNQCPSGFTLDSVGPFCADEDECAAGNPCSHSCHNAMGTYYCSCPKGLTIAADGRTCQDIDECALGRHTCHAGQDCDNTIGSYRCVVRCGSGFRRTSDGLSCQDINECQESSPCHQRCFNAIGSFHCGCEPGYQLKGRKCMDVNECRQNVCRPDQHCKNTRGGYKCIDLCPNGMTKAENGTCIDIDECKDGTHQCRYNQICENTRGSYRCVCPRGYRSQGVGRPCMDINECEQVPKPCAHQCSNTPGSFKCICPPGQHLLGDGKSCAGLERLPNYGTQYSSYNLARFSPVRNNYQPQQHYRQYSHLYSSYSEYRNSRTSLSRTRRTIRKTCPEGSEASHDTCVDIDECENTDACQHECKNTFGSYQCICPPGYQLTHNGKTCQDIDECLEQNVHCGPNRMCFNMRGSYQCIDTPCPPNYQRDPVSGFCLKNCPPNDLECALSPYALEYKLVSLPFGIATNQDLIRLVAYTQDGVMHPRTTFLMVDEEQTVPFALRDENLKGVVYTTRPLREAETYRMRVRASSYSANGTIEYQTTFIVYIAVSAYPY
UniProt P17096: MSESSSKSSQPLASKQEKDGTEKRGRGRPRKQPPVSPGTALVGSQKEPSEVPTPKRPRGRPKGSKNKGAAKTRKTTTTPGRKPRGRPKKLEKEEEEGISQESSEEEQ
UniProt Q15651: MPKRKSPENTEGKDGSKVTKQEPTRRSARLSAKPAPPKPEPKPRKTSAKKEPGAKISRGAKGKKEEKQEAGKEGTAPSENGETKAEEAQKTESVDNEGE
UniProt Q9Y241: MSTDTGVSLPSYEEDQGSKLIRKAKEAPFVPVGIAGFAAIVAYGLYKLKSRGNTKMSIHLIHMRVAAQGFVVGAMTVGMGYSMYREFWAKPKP
UniProt P13747, whole entry, looked up: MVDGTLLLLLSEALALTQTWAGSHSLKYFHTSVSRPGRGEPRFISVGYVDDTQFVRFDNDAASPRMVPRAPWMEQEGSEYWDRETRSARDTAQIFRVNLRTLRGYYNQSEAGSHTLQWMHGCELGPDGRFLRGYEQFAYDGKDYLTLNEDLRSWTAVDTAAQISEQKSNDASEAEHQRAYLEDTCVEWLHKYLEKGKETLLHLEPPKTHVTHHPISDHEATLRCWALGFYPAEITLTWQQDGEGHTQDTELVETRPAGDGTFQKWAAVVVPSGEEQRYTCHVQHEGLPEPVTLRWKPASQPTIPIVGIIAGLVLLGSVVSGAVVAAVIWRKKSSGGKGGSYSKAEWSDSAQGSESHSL

[1] = compound: C/C(=N\NC(=O)C1=CC(=CC=C1)S(=O)(=O)N2CCOCC2)/C3=C(C=CC(=C3)Cl)O
Outline: as §1

[2] = compound: C1=CC(=CC=C1C2=NC3=C(N2)C=C(C=C3)C(=O)N)OC4=CC=C(C=C4)Cl
Outline: as §1

[3] = compound: C1=CC2=C(C=CC(=C2)/C=C\3/C(=O)NC(=NCC4=CC=CS4)S3)N=C1
Outline: as §1

[4] = compound: C1=CC=C(C=C1)C2=NC(=C(N2)C3=CC=NC=C3)C4=CC(=C(C=C4)Cl)O
Outline: as §1

[5] = compound: C1=CC=C2C(=C1)C3=NNC4=CC=CC(=C43)C2=O
Outline: as §1

[6] = compound: C1CCN(C1)C(=O)NC2=CC=CC(=C2)NC3=NC=C(C(=N3)NCCC4=CN=CN4)Br
Outline: as §1

[7] = compound: C1CN(CCC1(CC2=CC=C(C=C2)Cl)N)C3=NC=NC4=C3C=CN4
Outline: as §1

IRAK-1-4 Inhibitor I = compound: C1COCCN1CCN2C3=CC=CC=C3N=C2NC(=O)C4=CC(=CC=C4)[N+](=O)[O-] [IRAK-1-4 Inhibitor I]
Outline: as §1

[8] = compound: C1=CC2=NC=CN=C2C=C1/C=C/3\C(=O)NC(=O)S3
Outline: as §1

Measured: log2 fold change

HPS3 (UniProt Q969F9)
inactive: erlotinib -0.028 | [1] 0.016 | [2] -0.006 | [3] -0.127 | [4] -0.063 | [5] 0.048 | [6] 0.123 | [7] -0.379 | IRAK-1-4 Inhibitor I 0.184

HPS4 isoform 4 (UniProt Q9NQG7)
inactive: erlotinib 0.03 | [1] -0.02 | [2] -0.014 | [3] -0.033 | [8] -0.226 | [4] -0.044 | [5] -0.069 | [6] -0.042 | [7] 0.093 | IRAK-1-4 Inhibitor I -0.038

HIST2H3A (UniProt Q71DI3)
inactive: erlotinib 0.025 | [1] 0.257 | [2] 0.025 | [3] -0.026 | [8] -0.045 | [4] 0.032 | [5] -0.001 | [6] 0.043 | [7] -0.02 | IRAK-1-4 Inhibitor I -0.03

HOMEZ isoform 3 (UniProt Q8IX15)
inactive: erlotinib 0.024 | [1] -0.332 | [2] 0.081 | [3] -0.015 | [8] -0.081 | [4] 0.071 | [5] -0.018 | [6] 0.025 | [7] 0.074 | IRAK-1-4 Inhibitor I -0.031

HSPA14 (UniProt Q0VDF9)
inactive: erlotinib 0.014 | [1] 0.025 | [2] -0.009 | [3] 0.009 | [8] 0.012 | [4] 0.049 | [5] -0.035 | [6] 0.018 | [7] 0.014 | IRAK-1-4 Inhibitor I 0.003

HNRNPA3 (UniProt P51991)
inactive: erlotinib 0.009 | [1] 0.013 | [2] -0.078 | [3] -0.002 | [8] 0.02 | [4] 0.036 | [5] 0.041 | [6] 0.077 | [7] 0 | IRAK-1-4 Inhibitor I -0.021

HMGN4 (UniProt O00479)
inactive: erlotinib 0.015 | [1] 0.238 | [2] 0.063 | [3] -0.056 | [8] 0.017 | [4] 0.048 | [5] 0.293 | [6] 0.201 | [7] -0.044 | IRAK-1-4 Inhibitor I -0.046

HELZ (UniProt P42694)
inactive: erlotinib 0.044 | [1] 0.012 | [2] 0.026 | [3] -0.006 | [8] 0.014 | [4] -0.057 | [5] -0.064 | [6] -0.007 | [7] 0.056 | IRAK-1-4 Inhibitor I 0.02

HJURP (UniProt Q8NCD3)
inactive: erlotinib 0.007 | [1] -0.07 | [2] 0.022 | [3] 0.206 | [8] -0.089 | [4] 0.132 | [5] -0.163 | IRAK-1-4 Inhibitor I 0.001

HEXIM2 (UniProt Q96MH2)
inactive: erlotinib -0.02 | [2] 0 | [4] 0.103 | IRAK-1-4 Inhibitor I 0.088

HLA-DRA
inactive: [6] 0.218 | [7] 0.068

HGF (UniProt P14210)
inactive: erlotinib -0.347 | [2] 0.058 | [4] -0.142 | IRAK-1-4 Inhibitor I 0.124

HSP90AA2P (UniProt Q14568)
inactive: [6] -0.097 | [7] 0.078

HNRNPL, A0A3B3ITJ4
inactive: [8] -0.086

HMCN1 (UniProt Q96RW7)
inactive: [1] 0.131 | [3] -0.069 | [8] -0.037 | [4] 0.033 | [5] -0.003 | IRAK-1-4 Inhibitor I 0.16

HNRNPM (UniProt M0QZM1)
inactive: [1] 0.07 | [3] 0.044 | [8] 0.246 | [5] 0.066 | [6] 0.046 | [7] 0.086

HMGXB3 (UniProt Q12766)
inactive: [6] -0.104 | [7] 0.062

Two records drawn at random from those above:
HMGXB3 (UniProt Q12766)
inactive: [6] -0.104 | [7] 0.062

HNRNPL, A0A3B3ITJ4
inactive: [8] -0.086

Additional records

HS6ST1 (UniProt O60243)
inactive: erlotinib 0.045 | [2] -0.187

HMGA1 isoform 2 (UniProt P17096)
inactive: erlotinib 0.042 | [2] -0.043 | [4] 0.022 | IRAK-1-4 Inhibitor I 0

HMGCR isoform 3 (UniProt P04035)
inactive: [6] -0.174 | [7] 0.053

HELLS (UniProt Q9NRZ9)
inactive: erlotinib 0.1 | [2] 0.085 | [4] -0.022 | [6] 0.086 | [7] 0.027 | IRAK-1-4 Inhibitor I 0.067

HMGN3 (UniProt Q15651)
inactive: erlotinib -0.049 | [2] 0.065 | [8] -0.018 | [4] -0.015 | IRAK-1-4 Inhibitor I 0.016

HNRNPM (UniProt M0R019)
inactive: [1] 0.224 | [3] 0.178 | [5] -0.128

HPGD (UniProt P15428)
inactive: [6] -0.059 | [7] -0.104

HOOK1 (UniProt Q9UJC3)
inactive: erlotinib 0.11 | [2] 0.142

Reprinted from the results shown (3 entries):
HS6ST1 (UniProt O60243)
inactive: erlotinib 0.045 | [2] -0.187

HMGA1 isoform 2 (UniProt P17096)
inactive: erlotinib 0.042 | [2] -0.043 | [4] 0.022 | IRAK-1-4 Inhibitor I 0

HMGCR isoform 3 (UniProt P04035)
inactive: [6] -0.174 | [7] 0.053

Remaining list, next part:

HIGD1A isoform 2 (UniProt Q9Y241)
inactive: erlotinib -0.039 | [2] 0.014 | [4] -0.004 | IRAK-1-4 Inhibitor I 0.004

HP1BP3 isoform 5 (UniProt Q5SSJ5)
inactive: erlotinib 0.022 | [2] 0.086

HOMER3 (UniProt Q9NSC5)
inactive: [8] -0.078

HNMT (UniProt P50135)
inactive: erlotinib -0.145 | [2] 0.108 | [8] 0.134 | [6] 0.016 | [7] 0.269

HOXB4 (UniProt P17483)
inactive: [1] -0.107 | [3] -0.025 | [8] -0.022 | [4] -0.251 | [5] -0.087 | [6] 0.036 | [7] 0.064 | IRAK-1-4 Inhibitor I -0.151

HERPUD1 (UniProt Q15011)
inactive: [1] -0.144 | [3] 0.06 | [8] 0.162 | [5] 0.007 | [6] 0.074 | [7] 0.001

HMX3 (UniProt A6NHT5)
inactive: erlotinib 0.025 | [2] 0.028

HPS6 (UniProt Q86YV9)
inactive: [6] -0.147 | [7] 0.107

HERC3 (UniProt Q15034)
inactive: [4] -0.02 | [6] -0.082 | [7] 0.06 | IRAK-1-4 Inhibitor I 0.059

HNRNPUL1 (UniProt M0R247)
inactive: erlotinib -0.046 | [2] 0.079 | [8] -0.049

HMGN5 (UniProt Q5JSK9)
inactive: [8] -0.128 | [6] 0.008 | [7] -0.076

HES1 (UniProt Q14469)
inactive: erlotinib -0.014 | [2] -0.025 | [4] -0.124 | [6] -0.316 | [7] -0.035 | IRAK-1-4 Inhibitor I -0.138

HOOK2 (UniProt Q96ED9)
inactive: erlotinib 0.101 | [2] -0.391 | [8] -0.096

HP (UniProt P00738)
inactive: [4] 0.869 | IRAK-1-4 Inhibitor I -0.373

HRAS (UniProt P01112)
inactive: erlotinib -0.044 | [2] -0.037 | [4] 0.037 | [6] -0.034 | [7] 0.021 | IRAK-1-4 Inhibitor I 0.012

HSF2 (UniProt Q03933)
inactive: [1] -0.183 | [3] -0.116 | [4] -0.048 | [5] 0.032 | [6] -0.094 | [7] 0.053 | IRAK-1-4 Inhibitor I -0.019

HLA-E (UniProt P13747)
inactive: erlotinib -0.089 | [2] 0.071 | [6] 0.118 | [7] 0.039

From the supplement of paper PMC10849652
